Measured values as given in patent US20090054517A1, “Phytoestrogens As Regulators Of Hedgehog Signaling And Methods Of Their Use In Cancer Treatment” (priority 2007, published 2009).
Some results were stated once for a whole list of compounds, not compound by compound. For at least one compound, name, drawing or mass did not settle the structure.

System: Gli1
Test: Gli1 mRNA expression by RT-PCR / real-time RT-PCR in TRAMP-C2 cells
Assay type: cell-based, mouse
Details: highest treatment concentrations, FIG. 6
Method: It has been shown that phytoestrogens in common herbs regulate prostate cancer cell growth in vitro (Shenouda et al., 2004). In order to determine whether these phytoestrogens also regulate cells derived from the mouse model of prostate cancer, the TRAMP-C2 cell line was treated with the soy phytoestrogen genistein and growth inhibition IC50 doses were determined (FIG. 4). Effects of the phytoestrogens genistein and EGCG on expression of these Hedgehog-pathway components were also determined by quantitative RT-PCR. Cyclopamine was used as a control. […] GAPDH was used as an internal control.
Another experiment was carried out to determine the dosage response of these phytoestrogen on Gli1 expression in the TRAMP-C2 cell line. Increasing amounts of genistein or EGCG were added to cell cultures of TRAMP-C2, and the levels of Gli1 mRNA was determined by real time RT-PCR. The results of this experiment verifies a correlation between phytoestrogen treatment and Hedgehog activity (FIG. 6).
In order to test whether the inhibitory effect of genistein on Gli1 transcription is through ERα or ERβ, experiments were conducted to determine whether 17β-estradiol (E2) works in the same manner as genistein (FIG. 7C).

| SMILES | decrease in Gli1 mRNA levels |
| --- | --- |
| O=C(O[C@@H]1Cc2c(O)cc(O)cc2O[C@@H]1c1cc(O)c(O)c(O)c1)c1cc(O)c(O)c(O)c1 [EGCG] | more than 80% |
| O=c1c(-c2ccc(O)cc2)coc2cc(O)cc(O)c12 [genistein] | more than 80% |
